Values of other authors, collected in patent US20090247537A1, “METHODS FOR PREVENTING OR TREATING BRUXISM USING DOPAMINERGIC AGENTS” (priority 2008, published 2009).
At least one compound was matched to its structure with a doubt left.

Conditions: double blind, crossover, placebo-controlled clinical trial; cited from earlier work

## CC(C)C[C@H]1C(=O)N2CCC[C@H]2[C@]2(O)O[C@](NC(=O)[C@@H]3C=C4c5cccc6[nH]c(Br)c(c56)C[C@H]4N(C)C3)(C(C)C)C(=O)N12 [bromocriptine]
  reducing the frequency and severity of bruxism during sleep: ineffective
